These are yes or no findings as the source states them, for the method shown. A result given as binding can be weak or reduced; the word gives no strength.
Target: cohesin-human CD40 ectodomain protein (P3398) (human)
Assay: SPR

binding | Binder
binds | anti-CD40 12B4 human IgG4 antibody (antibody, V domains shown) VH: EVQLQQSGPELVKPGASVKMSCKASGYTFTDYVLHWVKQKPGQGLEWIGYINPYNDGTKYNEKFKGKATLTSDKSSSTAYMELSSLTSEDSAVYYCARGYPAYSGYAMDYWGQGTSVTVSS VL: DIQMTQTTSSLSASLGDRVTISCRASQDISNYLNWYQQKPDGTVKLLIYYTSRLHSGVPSRFSGSGSGTDYSLTISNLEQEDIATYFCHHGNTLPWTFGGGTK
binds | anti-CD40 24A3 human IgG4 antibody (antibody, V domains shown) VH: DVQLQESGPDLVKPSQSLSLTCTVTGYSITSDYSWHWIRQFPGNKLEWMGYIYYSGSTNYNPSLKSRISITRDTSKNQFFLQLNSVTTEDSATYFCARFYYGYSFFDYWGQGTTLTVSS VL: QIVLTQSPAFMSASPGEKVTMTCSASSSVSYMHWYQQKSGTSPKRWIYDTSKLASGVPARFSGSGSGTSYSLTISSMEAEDAATYYCQQWSSNPLTFGAGTK
